Test results as given in US20250147051A1, “METHOD FOR DETECTING A TAU PROTEIN IN A SALIVA SAMPLE” (GTINVENT LIMITED, priority 2022, published 2025).

System: tau
Experiment: Capture ELISA of transgenic mouse plasma
Details: S1D12 mAb capture; for plasma tau level, L1 5 month / plasma tau level, L1 9 month / plasma tau level, L66+/+ 5 month / plasma tau level, L66+/- 5 month / plasma tau level, WT 5 month / plasma tau level, WT 9 month: S1G2 scAb detection; for plasma tau level, L1 5 month / plasma tau level, L1 9 month: dGA calibrator; for plasma tau level, L66+/+ 5 month / plasma tau level, L66+/- 5 month / plasma tau level, WT 5 month / plasma tau level, WT 9 month: hT40 calibrator
Experimental: Plasma samples from WT, L1, L66+/− and L66+/+ of various ages (1.5-9 months) were taken as described. Mice were terminally anaesthetized using an overdose of sodium pentobarbital and blood was collected through cardiac puncture through a Plastipak syringe pre-rinsed with heparinised saline heparin (10 U/ml) (Heparin sodium salt; Sigma-Aldrich) and transferred into a plastic vial containing lithium heparin anticoagulant (Sarstedt Ltd.) Blood samples, kept on ice for no more than 30 minutes, were centrifuged to obtain plasma at 2000×g for 5 minutes at 6° C. Plasma samples were stored at −20° C.
For mouse plasma capture ELISA, 100 μL capture mAb was coated to the bottom of a black nunc 96 well ‘maxisorp’ plate at 2.5 μg/ml and incubated for 1 hour at 37° C. After washing and blocking as normal, several known standard solutions were set up in triplicate starting at 20 ng/ml of the desired protein before double diluted in the remaining wells. Mouse samples were added to wells in duplicate with a blank in between each sample group. Line1 plasma was diluted 1:10 before addition to plate to account for its high concentration while other samples were diluted 1:2 to account for potential matrix effects. These samples were left to incubate at RT for 1 hour. HRP-conjugated secondary scAb (conjugation carried out according to manufacturer's guidelines, Abcam) was added to each well and left to incubate at RT for 1 hour. The ELISA was developed using SuperSignal ELISA Femto Substrate (Thermo Scientific) and total luminescence was read on Clariostar Plus plate reader (BMG Labtech). Tau concentrations were established using a 4-parameter fit on concentration curves generated from recombinant tau protein spiked into samples at known concentration. For WT and L66 hT40 was used as a calibrator while dGA was used for L1 calibration.

Row | Molecule | plasma tau level, L1 5 month | plasma tau level, L1 9 month | plasma tau level, L66+/+ 5 month | plasma tau level, L66+/- 5 month | plasma tau level, WT 5 month | plasma tau level, WT 9 month | increase in signal intensity, Line66+/+ compared to wild type plasma (CB7 scAb detection, 1.5 months)
1 | S1D12: anti-tau binding molecule defined by its CDRs; scAb sequence SEQ ID NO: 32 (protein, S1D12 amino acid sequence) scFv: QVQLQESGPSLVKPSQTLSLTCTVSGFSLNNNAVGWVRQAPGKVPESLVGCSSDGTCYYNSALKSRLDITRDTSKNQISLSLSSVTTDDAAVYYCTRGHYSIYGYDYLGTIDYWGPGLLVTVSSEGKSSGASGESKVDDQAVLTQPSSVSGSLGQRVSITCSGSSSNVGGGNSVGWYQHLPGSGLKTIIYDTNSRPSGVPDRFSGSRSGNTATLTINSLQAEDEGDYYCVTGDSTTHDDLVGSGTRLTVLG | 12.355 ng/mL | 13.661 ng/mL | 1.937 ng/mL | 0.567 ng/mL | 1.947 ng/mL | 2.177 ng/mL | 
2 | S1D12 mAb: S1D12 reformatted as mAb; heavy chain SEQ ID NO: 445, light chain SEQ ID NO: 446 (antibody, S1D12 mAB Heavy Chain; S1D12 mAB Light Chain) heavy: QVQLQESGPSLVKPSQTLSLTCTVSGFSLNNNAVGWVRQAPGKVPESLVGCSSDGTCYYNSALKSRLDITRDTSKNQISLSLSSVTTDDAAVYYCTRGHYSIYGYDYLGTIDYWGPGLLVTVSSAKTTAPSVYPLAPVCGDTTGSSVTLGCLVKGYFPEPVTLTWNSGSLSSGVHTFPAVLQSDLYTLSSSVTVTSSTWPSQSITCNVAHPASSTKVDKKIEPRGPTIKPCPPCKCPAPNLLGGPSVFIFPPKIKDVLMISLSPIVTCVVVDVSEDDPDVQISWFVNNVEVHTAQTQTHREDYNSTLRVVSALPIQHQDWMSGKEFKCKVNNKDLPAPIERTISKPKGSVRAPQVYVLPPPEEEMTKKQVTLTCMVTDFMPEDIYVEWTNNGKTELNYKNTEPVLDSDGSYFMYSKLRVEKKNWVERNSYSCSVVHEGLHNHHTTKSFSRTPGK light: QAVLTQPSSVSGSLGQRVSITCSGSSSNVGGGNSVGWYQHLPGSGLKTIIYDTNSRPSGVPDRFSGSRSGNTATLTINSLQAEDEGDYYCVTGDSTTHDDLVGSGTRLTVLGGQPKSSPSVTLFPPSSEELETNKATLVCTITDFYPGVVTVDWKVDGTPVTQGMETTQPSKQSNNKYMASSYLTLTARAWERHSSYSCQVTHEGHTVEKSLSRADCS | 12.355 ng/mL | 13.661 ng/mL | 1.937 ng/mL | 0.567 ng/mL | 1.947 ng/mL | 2.177 ng/mL | at least 1000 fold
